# The other results are listed elsewhere or left out.
# By UniProt entry, the sequences of proteins in these tests, tags left out. Where a name states a change or a piece, a line headed by the entry shows the natural chain unless it says otherwise.
# UniProt Q9NS87: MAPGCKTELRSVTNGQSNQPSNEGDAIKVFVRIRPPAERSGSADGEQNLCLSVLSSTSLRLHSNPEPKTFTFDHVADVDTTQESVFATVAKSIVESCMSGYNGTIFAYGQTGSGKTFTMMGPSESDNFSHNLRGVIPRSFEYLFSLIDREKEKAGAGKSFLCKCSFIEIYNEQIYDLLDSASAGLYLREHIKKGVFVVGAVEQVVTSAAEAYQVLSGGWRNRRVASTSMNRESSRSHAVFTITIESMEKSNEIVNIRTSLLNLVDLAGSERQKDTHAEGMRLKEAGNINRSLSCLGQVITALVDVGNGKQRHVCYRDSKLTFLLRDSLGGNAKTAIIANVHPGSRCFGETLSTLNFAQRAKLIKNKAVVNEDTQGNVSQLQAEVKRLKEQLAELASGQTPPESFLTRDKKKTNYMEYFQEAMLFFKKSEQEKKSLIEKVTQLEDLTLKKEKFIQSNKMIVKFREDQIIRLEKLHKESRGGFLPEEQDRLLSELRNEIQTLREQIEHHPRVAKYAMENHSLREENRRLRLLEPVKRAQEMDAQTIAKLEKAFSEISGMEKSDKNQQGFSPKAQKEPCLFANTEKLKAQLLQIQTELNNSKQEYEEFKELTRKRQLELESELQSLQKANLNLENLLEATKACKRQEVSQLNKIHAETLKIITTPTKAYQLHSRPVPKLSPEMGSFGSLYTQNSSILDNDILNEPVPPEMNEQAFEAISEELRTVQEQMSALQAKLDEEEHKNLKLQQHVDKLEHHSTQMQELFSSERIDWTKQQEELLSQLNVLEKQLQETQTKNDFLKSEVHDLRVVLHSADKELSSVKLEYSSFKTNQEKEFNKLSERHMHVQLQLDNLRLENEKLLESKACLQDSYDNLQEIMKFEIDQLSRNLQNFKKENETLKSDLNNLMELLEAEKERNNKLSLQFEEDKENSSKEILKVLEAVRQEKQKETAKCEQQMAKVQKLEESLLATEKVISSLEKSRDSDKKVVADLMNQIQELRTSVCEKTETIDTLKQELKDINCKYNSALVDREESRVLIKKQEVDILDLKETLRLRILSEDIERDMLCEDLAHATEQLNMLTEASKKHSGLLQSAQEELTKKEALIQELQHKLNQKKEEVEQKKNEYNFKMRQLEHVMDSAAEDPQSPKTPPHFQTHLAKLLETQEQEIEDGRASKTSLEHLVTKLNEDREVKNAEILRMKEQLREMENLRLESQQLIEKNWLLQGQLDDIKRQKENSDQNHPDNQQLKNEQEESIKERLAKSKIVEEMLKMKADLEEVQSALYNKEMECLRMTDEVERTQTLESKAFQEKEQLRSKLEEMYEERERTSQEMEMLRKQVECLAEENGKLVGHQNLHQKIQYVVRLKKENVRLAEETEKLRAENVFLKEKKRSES
# UniProt P52294, whole entry, looked up: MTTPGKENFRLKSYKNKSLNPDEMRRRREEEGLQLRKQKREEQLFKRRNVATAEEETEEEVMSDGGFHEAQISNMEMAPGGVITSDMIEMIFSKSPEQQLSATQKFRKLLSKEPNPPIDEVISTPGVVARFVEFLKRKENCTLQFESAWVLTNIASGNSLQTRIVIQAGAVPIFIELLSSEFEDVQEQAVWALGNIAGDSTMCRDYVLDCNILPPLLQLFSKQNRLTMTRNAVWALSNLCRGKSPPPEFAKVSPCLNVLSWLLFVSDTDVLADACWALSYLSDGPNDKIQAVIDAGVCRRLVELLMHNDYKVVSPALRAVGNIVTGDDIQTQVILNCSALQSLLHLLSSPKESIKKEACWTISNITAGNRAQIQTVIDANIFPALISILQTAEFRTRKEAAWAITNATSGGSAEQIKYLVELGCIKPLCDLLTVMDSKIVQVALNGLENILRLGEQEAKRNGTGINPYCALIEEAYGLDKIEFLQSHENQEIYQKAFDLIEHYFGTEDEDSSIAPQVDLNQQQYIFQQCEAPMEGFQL
# UniProt O00180: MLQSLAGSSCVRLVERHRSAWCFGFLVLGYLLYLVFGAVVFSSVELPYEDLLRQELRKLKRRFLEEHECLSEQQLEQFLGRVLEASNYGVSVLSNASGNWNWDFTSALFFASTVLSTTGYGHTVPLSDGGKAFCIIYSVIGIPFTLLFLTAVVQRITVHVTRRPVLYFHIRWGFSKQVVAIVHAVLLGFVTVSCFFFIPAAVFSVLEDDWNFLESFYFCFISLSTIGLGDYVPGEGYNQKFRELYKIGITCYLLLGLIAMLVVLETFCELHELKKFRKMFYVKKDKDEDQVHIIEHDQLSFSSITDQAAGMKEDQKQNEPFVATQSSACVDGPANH
# UniProt O15066: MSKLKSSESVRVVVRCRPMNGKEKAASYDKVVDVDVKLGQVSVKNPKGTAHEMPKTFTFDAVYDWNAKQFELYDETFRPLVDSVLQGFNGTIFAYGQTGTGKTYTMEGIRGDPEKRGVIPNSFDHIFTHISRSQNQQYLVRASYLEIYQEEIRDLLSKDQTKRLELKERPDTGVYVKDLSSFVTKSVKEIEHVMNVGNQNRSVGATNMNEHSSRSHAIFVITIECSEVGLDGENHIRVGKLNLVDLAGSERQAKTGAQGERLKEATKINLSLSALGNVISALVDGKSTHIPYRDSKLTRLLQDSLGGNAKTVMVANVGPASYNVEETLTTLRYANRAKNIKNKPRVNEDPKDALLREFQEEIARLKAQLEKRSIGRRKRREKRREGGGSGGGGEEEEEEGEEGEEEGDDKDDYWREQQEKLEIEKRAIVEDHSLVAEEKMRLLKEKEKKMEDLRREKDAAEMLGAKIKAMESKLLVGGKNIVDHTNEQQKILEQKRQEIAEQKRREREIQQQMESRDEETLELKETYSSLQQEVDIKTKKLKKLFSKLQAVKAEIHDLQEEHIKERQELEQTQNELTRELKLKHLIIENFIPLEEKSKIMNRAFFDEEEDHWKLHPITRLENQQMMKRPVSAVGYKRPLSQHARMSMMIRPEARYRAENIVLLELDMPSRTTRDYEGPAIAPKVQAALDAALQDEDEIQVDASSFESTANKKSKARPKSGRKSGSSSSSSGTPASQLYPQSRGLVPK
# UniProt Q96S16: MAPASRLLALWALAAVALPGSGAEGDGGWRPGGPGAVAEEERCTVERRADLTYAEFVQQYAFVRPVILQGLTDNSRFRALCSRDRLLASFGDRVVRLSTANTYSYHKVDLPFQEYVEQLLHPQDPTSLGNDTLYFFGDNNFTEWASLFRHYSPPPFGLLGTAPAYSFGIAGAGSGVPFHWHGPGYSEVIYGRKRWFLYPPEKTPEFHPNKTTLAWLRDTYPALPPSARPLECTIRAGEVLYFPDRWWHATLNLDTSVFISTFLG
# UniProt P52732: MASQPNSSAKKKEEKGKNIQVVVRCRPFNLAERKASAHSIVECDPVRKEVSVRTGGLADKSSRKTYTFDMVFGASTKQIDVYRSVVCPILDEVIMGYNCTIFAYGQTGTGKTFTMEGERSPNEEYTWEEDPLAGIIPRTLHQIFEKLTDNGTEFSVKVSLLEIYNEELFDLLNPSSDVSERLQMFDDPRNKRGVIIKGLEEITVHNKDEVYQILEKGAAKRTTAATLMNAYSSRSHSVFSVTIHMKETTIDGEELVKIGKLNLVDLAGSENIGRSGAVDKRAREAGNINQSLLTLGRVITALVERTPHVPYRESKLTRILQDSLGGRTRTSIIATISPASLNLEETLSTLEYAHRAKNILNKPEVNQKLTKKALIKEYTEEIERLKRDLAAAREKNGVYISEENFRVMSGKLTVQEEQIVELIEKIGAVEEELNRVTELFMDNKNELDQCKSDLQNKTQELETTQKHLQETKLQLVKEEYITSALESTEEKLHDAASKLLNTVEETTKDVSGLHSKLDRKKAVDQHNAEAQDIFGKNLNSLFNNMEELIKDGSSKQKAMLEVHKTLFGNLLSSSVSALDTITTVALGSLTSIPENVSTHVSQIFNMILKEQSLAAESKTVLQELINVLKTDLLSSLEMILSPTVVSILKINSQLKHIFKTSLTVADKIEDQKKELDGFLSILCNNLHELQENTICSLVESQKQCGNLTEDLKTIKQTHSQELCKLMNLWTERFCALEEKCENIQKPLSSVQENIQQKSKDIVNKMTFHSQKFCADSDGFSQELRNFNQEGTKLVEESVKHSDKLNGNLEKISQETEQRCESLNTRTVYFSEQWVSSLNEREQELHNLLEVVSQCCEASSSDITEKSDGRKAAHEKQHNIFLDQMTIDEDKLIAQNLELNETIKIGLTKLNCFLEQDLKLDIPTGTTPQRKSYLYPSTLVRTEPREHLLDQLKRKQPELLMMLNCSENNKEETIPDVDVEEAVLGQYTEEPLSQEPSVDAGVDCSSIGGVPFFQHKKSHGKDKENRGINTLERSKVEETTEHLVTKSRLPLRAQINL
# UniProt Q8N6L1: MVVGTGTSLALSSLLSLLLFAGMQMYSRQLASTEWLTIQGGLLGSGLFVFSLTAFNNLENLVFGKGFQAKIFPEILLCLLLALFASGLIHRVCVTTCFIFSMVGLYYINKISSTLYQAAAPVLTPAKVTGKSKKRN
# UniProt Q12809: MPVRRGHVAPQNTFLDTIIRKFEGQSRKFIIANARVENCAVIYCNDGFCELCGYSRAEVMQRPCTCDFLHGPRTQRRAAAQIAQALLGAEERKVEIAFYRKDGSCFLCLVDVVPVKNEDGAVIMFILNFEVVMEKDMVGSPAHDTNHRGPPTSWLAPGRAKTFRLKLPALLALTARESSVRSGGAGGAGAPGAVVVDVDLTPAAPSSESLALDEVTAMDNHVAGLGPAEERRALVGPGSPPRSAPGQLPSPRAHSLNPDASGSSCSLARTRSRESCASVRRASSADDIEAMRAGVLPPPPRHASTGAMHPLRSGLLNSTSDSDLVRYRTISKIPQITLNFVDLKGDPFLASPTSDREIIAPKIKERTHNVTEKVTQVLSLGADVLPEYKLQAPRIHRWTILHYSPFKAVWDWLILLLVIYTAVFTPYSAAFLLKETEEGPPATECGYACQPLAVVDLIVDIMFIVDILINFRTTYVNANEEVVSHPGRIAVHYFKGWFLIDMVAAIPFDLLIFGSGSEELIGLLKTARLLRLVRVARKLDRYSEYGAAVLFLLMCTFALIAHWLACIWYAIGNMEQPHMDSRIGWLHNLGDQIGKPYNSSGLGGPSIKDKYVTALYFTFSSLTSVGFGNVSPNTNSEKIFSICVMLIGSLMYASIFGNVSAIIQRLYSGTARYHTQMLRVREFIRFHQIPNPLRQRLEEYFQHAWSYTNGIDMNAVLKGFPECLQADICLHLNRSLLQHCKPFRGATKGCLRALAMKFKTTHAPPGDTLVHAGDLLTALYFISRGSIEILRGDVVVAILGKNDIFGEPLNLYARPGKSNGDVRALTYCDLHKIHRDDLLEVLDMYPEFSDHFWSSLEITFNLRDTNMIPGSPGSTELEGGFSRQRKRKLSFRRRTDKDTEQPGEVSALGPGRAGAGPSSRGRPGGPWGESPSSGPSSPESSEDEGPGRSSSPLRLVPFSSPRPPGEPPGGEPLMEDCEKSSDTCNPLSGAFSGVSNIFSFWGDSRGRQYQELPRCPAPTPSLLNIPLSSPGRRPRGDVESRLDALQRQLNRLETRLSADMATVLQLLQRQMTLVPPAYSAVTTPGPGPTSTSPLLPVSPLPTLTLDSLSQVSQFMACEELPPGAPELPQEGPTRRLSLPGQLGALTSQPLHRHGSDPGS
# What was measured:
# Assay in all cases: log2 fold change, soluble protein after heating vs DMSO (PISA); higher = thermal stabilisation; K562 cells, 10 uM, 30 min; active = over 0.2 and 3.5 SD of the protein, either way, in both replicates (recomputed)
# [1] = compound: CC1=C(C=C(C=C1)NC(=O)C2=CC(=CC=C2)C(C)(C)C#N)NC3=CC4=C(C=C3)N=CN(C4=O)C
# Procedure, shortened: (§1)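 Soluble protein was quantified by TMTpro 16plex LC-MS/MS after channel sums were equalised. It was obtained as the supernatant after 21,000xg for 90 min from pooled aliquots of K562 cells (2×10^6 cells/mL, 10 μM compound, 30 min) heated for 3 min across 48°C-58°C and extracted in PBS with 0.5% NP-40 at 4°C. Thermal stability values are relative to control samples and come from duplicates. They are given as log2 fold changes.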
# [2] = compound: CC1=C(C=C(C=C1)NC(=O)C2=CC(=CC=C2)N(C)C)NC(=O)C3=CC=C(C=C3)O
# Procedure, shortened: as §1
# [3] = compound: CC1=NC(=CC=C1)C2=C(N=C(N2)C(C)(C)C)C3=CC4=NC=CN=C4C=C3
# Procedure, shortened: as §1
# Nexturastat A = compound: CCCCN(Cc1ccc(C(=O)NO)cc1)C(=O)Nc1ccccc1 [Nexturastat A]
# Procedure, shortened: as §1
# vemurafenib = compound: CCCS(=O)(=O)Nc1ccc(F)c(C(=O)c2c[nH]c3ncc(-c4ccc(Cl)cc4)cc23)c1F [vemurafenib]
# Procedure, shortened: as §1
# [4] = compound: CCCc1cc(C)[nH]c(=O)c1CNC(=O)c1cc(-c2ccnc(N3CCN(C)CC3)c2)cc2c1cnn2C(C)C
# Procedure, shortened: as §1
# givinostat = compound: CCN(CC)Cc1ccc2cc(COC(=O)Nc3ccc(C(=O)NO)cc3)ccc2c1 [givinostat]
# Procedure, shortened: as §1
# barasertib = compound: CCN(CCCOc1ccc2c(Nc3cc(CC(=O)Nc4cccc(F)c4)[nH]n3)ncnc2c1)CCOP(=O)(O)O [barasertib]
# Procedure, shortened: as §1
# [5] = compound: CC[C@@H]1C(=O)N(C)c2cnc(Nc3ccc(C(=O)NC4CCN(C)CC4)cc3OC)nc2N1C1CCCC1
# Procedure, shortened: as §1
# epoxomicin = compound: CC[C@H](C)[C@@H](C(=O)N[C@@H]([C@@H](C)O)C(=O)N[C@@H](CC(C)C)C(=O)[C@]1(CO1)C)NC(=O)[C@H]([C@@H](C)CC)N(C)C(=O)C [epoxomicin]
# Procedure, shortened: as §1
# [6] = compound: CCn1c(C(=O)N(C2CC2)C2CC2)cc2c3c(ncn3C)c(Nc3cc(C)n(C)n3)nc21
# Procedure, shortened: as §1
# [7] = compound: CCn1cc(-c2ccnc3[nH]c(-c4cccc(CN(C)C)c4)cc23)c(-c2ccc(NC(=O)N(C)C)cc2)n1
# Procedure, shortened: as §1
# [8] = compound: CN(C)CC(=O)Nc1ccc2[nH]c(=O)c3ccccc3c2c1
# Procedure, shortened: as §1
# rosiglitazone = compound: CN(CCOC1=CC=C(C=C1)C[C@H]2C(=O)NC(=O)S2)C3=CC=CC=N3 (racemic) [rosiglitazone]
# Procedure, shortened: as §1
# [9] = compound: CN1C2=C(C3=C1C(=O)N(N=C3)CC4=CC(=CC=C4)N)SC(=C2)S(=O)C
# Procedure, shortened: as §1
# [10] = compound: CN1CCC(CNc2ccc3ncc(-c4cccc(OC(F)(F)F)c4)n3n2)CC1
# Procedure, shortened: as §1
# [11] = compound: CC1=CC=C(C=C1)SC2=C3C=C(SC3=CN=C2)C(=O)N
# Procedure, shortened: as §1
# [12] = compound: CCCS(=O)(=O)Nc1ccc(F)c(C(=O)c2c[nH]c3ncc(Cl)cc23)c1F
# Procedure, shortened: as §1
# volasertib = compound: CC[C@@H]1C(=O)N(C)c2cnc(Nc3ccc(C(=O)N[C@H]4CC[C@H](N5CCN(CC6CC6)CC5)CC4)cc3OC)nc2N1C(C)C [volasertib]
# Procedure, shortened: as §1
# [13] = compound: CC[C@H](C)N1C=C(C2=C(C=C(C=C21)C3=CN=C(C=C3)N4CCNCC4)C(=O)NCC5=C(C=C(NC5=O)C)C)C
# Procedure, shortened: as §1
Target,log2 fold change [1],log2 fold change [2],log2 fold change [3],log2 fold change (Nexturastat A),log2 fold change (vemurafenib),log2 fold change [4],log2 fold change (givinostat),log2 fold change (barasertib),log2 fold change [5],log2 fold change (epoxomicin),log2 fold change [6],log2 fold change [7],log2 fold change [8],log2 fold change (rosiglitazone),log2 fold change [9],log2 fold change [10],log2 fold change [11],log2 fold change [12],log2 fold change (volasertib),log2 fold change [13]
KIF15 (UniProt Q9NS87),inactive: -0.055,inactive: 0.021,inactive: 0.003,inactive: 0.25,inactive: -0.072,inactive: 0.072,inactive: 0.08,inactive: 0.04,inactive: 0.147,inactive: -0.204,inactive: -0.001,inactive: 0.036,inactive: -0.046,inactive: -0.181,inactive: 0.371,inactive: 0.178,,,,
KPNA1 (UniProt P52294),inactive: -0.034,inactive: -0.056,inactive: -0.041,inactive: 0.084,inactive: 0.035,inactive: 0.034,inactive: 0.086,inactive: 0.012,inactive: -0.039,inactive: -0.051,,inactive: 0.004,inactive: 0.055,,inactive: 0.104,inactive: -0.082,inactive: -0.021,inactive: 0.026,active: -0.312,inactive: 0.115
JAG2 (UniProt Q9Y219),inactive: -0.349,inactive: 0.064,inactive: -0.118,inactive: 0.132,inactive: -0.104,,inactive: 0.038,inactive: 0.117,,inactive: -0.067,inactive: -0.094,,inactive: 0.092,inactive: -0.113,inactive: -0.079,,inactive: 0.024,inactive: -0.081,inactive: -0.028,inactive: 0.028
KCNK1 (UniProt O00180),inactive: 0.02,inactive: 0.014,inactive: 0.087,inactive: 0.01,,,inactive: -0.11,inactive: -0.003,inactive: 0.063,inactive: 0.051,inactive: -0.174,inactive: -0.069,,inactive: -0.213,inactive: 0.027,inactive: 0.073,inactive: 0.099,inactive: -0.097,inactive: 0.036,inactive: 0.012
KIF3B (UniProt O15066),inactive: -0.082,inactive: 0.05,inactive: -0.042,inactive: 0.097,inactive: 0.018,inactive: -0.019,inactive: 0.067,inactive: -0.062,inactive: 0.156,inactive: -0.134,,inactive: 0.159,inactive: -0.078,,inactive: -0.052,active: 0.378,inactive: -0.022,inactive: 0.017,inactive: -0.009,
JMJD8 (UniProt Q96S16),inactive: 0,inactive: 0.006,inactive: -0.067,,inactive: 0.117,inactive: 0.025,,,,,,,inactive: 0.072,,inactive: -0.054,,inactive: -0.063,inactive: -0.036,inactive: 0.074,inactive: -0.094
KIF11 (UniProt P52732),inactive: -0.032,inactive: -0.119,inactive: -0.033,inactive: 0.155,inactive: 0.071,inactive: 0.076,inactive: 0.09,inactive: 0.049,inactive: 0.016,inactive: -0.032,,inactive: 0.023,inactive: 0.041,,inactive: 0.182,inactive: 0.022,inactive: -0.005,inactive: 0.077,inactive: -0.42,inactive: 0.081
KRTCAP2 isoform 2 (UniProt Q8N6L1),inactive: 0.017,inactive: 0.043,inactive: -0.005,inactive: 0.034,inactive: -0.013,inactive: -0.238,inactive: -0.01,inactive: -0.094,inactive: -0.005,inactive: -0.047,inactive: 0.031,inactive: 0.056,inactive: 0.063,inactive: 0.021,inactive: -0.034,inactive: -0.003,,,,inactive: -0.041
KCNH2 (UniProt Q12809),inactive: 0.08,inactive: 0.158,,inactive: 0.277,inactive: 0.068,inactive: 0.051,,inactive: -0.112,,inactive: -0.002,inactive: -0.022,,inactive: 0.037,inactive: -0.082,inactive: 0.159,,inactive: 0.027,inactive: 0.054,inactive: -0.16,
IWS1 (UniProt Q96ST2),inactive: -0.083,inactive: 0.007,inactive: -0.02,inactive: 0.029,inactive: 0.046,inactive: -0.017,inactive: 0.051,inactive: 0.002,inactive: 0.048,inactive: 0.006,,inactive: 0.021,inactive: 0.046,,inactive: 0,inactive: -0.054,inactive: -0.015,inactive: -0.003,inactive: 0.034,inactive: 0.029

# — the supplement of paper PMC10849652
